Source: publication PMC11224396
These are yes or no findings as the source states them, for the method shown. Binding seen in cells or lysates may run through a third protein. A yes stands for co-enrichment or nearness to the bait. Other partners may have been found.

Amino acid sequences for entries named in this document (tags omitted).
UniProt Q86U44: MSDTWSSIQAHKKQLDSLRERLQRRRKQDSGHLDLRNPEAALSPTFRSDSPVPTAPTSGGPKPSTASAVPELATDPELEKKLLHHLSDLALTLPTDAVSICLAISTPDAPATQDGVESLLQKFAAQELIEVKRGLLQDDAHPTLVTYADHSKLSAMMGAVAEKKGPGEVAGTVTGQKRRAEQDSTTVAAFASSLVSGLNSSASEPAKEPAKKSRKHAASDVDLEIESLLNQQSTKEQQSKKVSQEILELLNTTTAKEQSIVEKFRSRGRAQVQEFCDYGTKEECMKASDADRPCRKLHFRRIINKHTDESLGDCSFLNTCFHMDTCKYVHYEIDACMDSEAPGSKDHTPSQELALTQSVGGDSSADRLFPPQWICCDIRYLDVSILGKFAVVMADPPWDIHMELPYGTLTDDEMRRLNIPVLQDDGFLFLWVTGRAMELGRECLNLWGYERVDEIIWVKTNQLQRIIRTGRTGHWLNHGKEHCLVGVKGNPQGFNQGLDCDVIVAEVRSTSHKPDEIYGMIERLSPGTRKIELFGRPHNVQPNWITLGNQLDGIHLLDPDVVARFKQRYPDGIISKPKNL
UniProt Q15365: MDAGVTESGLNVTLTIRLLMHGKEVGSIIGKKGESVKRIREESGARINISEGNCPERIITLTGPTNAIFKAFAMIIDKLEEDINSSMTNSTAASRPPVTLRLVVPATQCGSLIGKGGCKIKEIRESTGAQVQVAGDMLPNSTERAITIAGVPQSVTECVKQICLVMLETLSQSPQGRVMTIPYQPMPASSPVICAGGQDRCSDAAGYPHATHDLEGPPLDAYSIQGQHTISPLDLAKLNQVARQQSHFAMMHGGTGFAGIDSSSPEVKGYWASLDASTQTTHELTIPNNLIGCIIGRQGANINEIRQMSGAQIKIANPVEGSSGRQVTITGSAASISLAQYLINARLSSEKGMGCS

B1: U2AF1 (protein, UniProt Q01081 1-240)
chain: MAEYLASIFGTEKDKVNCSFYFKIGACRHGDRCSRLHNKPTFSQTIALLNIYRNPQNSSQSADGLRCAVSDVEMQEHYDEFFEEVFTEMEEKYGEVEEMNVCDNLGDHLVGNVYVKFRREEDAEKAVIDLNNRWFNGQPIHAELSPVTDFREACCRQYEMGECTRGGFCNFMHLKPISRELRRELYGRRRKKHRSRSRSRERRSRSRDRGRGGGGGGGGGGGGRERDRRRSRDRERSGRF
B2: HNRNPM (protein, UniProt P52272 1-730)
chain: MAAGVEAAAEVAATEIKMEEESGAPGVPSGNGAPGPKGEGERPAQNEKRKEKNIKRGGNRFEPYANPTKRYRAFITNIPFDVKWQSLKDLVKEKVGEVTYVELLMDAEGKSRGCAVVEFKMEESMKKAAEVLNKHSLSGRPLKVKEDPDGEHARRAMQKVMATTGGMGMGPGGPGMITIPPSILNNPNIPNEIIHALQAGRLGSTVFVANLDYKVGWKKLKEVFSMAGVVVRADILEDKDGKSRGIGTVTFEQSIEAVQAISMFNGQLLFDRPMHVKMDERALPKGDFFPPERPQQLPHGLGGIGMGLGPGGQPIDANHLNKGIGMGNIGPAGMGMEGIGFGINKMGGMEGPFGGGMENMGRFGSGMNMGRINEILSNALKRGEIIAKQGGGGGGGSVPGIERMGPGIDRLGGAGMERMGAGLGHGMDRVGSEIERMGLVMDRMGSVERMGSGIERMGPLGLDHMASSIERMGQTMERIGSGVERMGAGMGFGLERMAAPIDRVGQTIERMGSGVERMGPAIERMGLSMERMVPAGMGAGLERMGPVMDRMATGLERMGANNLERMGLERMGANSLERMGLERMGANSLERMGPAMGPALGAGIERMGLAMGGGGGASFDRAIEMERGNFGGSFAGSFGGAGGHAPGVARKACQIFVRNLPFDFTWKMLKDKFNECGHVLYADIKMENGKSKGCGVVKFESPEVAERACRMMNGMKLSGREIDVRIDRNA

molecular target: METTL3 (human (endogenous in EC109)) (UniProt Q86U44); test: affinity purification with mass spectrometry; co-immunoprecipitation with anti-METTL3 and anti-METTL14 antibodies from EC109 cells, HPLC-MS identification of the pulled-down proteins, iBAQ values

**Q.** PCBP1 (from UniProt Q15365 1-356) was tested. Which binding did it give?
**A.** binds

**Q.** With B1 as the molecule, how does the binding read?
**A.** binds

**Q.** For B2, which binding is on record?
**A.** binds
